Earlier results as cited in patent US8673586B2, “Compounds that interact with kinases” (Alchemia Limited, priority 2002, dated 2014).
At least one structure is not confirmed: it was looked up by name or label, or the drawing left a doubt.

The chains behind the UniProt entries cited, without tags or fusion partners.
UniProt P49841, whole entry, species assumed: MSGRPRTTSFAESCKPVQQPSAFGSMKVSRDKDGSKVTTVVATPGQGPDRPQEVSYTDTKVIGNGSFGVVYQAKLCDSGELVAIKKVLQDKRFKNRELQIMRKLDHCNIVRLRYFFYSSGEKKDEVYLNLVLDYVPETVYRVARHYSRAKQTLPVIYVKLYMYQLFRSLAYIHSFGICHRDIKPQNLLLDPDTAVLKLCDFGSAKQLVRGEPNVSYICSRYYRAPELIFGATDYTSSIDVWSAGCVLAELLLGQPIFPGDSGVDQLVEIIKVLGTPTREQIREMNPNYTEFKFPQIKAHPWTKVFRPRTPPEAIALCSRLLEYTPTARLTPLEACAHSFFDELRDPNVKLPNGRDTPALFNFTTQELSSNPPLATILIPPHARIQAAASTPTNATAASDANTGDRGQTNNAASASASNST

Key:
Details in all cases: inhibitor concentration 50 μM; cited from earlier work
PI3K = tested on: PI3K
CK2 = tested on: CK2
PHK = PHK (Oryctolagus cuniculus, UniProt P00518)
GSK3β = GSK3β (Homo sapiens, UniProt P49841)
SGK = biological target: T1, SGK (Homo sapiens, UniProt O00141)
T1 sequence (O00141 1-431): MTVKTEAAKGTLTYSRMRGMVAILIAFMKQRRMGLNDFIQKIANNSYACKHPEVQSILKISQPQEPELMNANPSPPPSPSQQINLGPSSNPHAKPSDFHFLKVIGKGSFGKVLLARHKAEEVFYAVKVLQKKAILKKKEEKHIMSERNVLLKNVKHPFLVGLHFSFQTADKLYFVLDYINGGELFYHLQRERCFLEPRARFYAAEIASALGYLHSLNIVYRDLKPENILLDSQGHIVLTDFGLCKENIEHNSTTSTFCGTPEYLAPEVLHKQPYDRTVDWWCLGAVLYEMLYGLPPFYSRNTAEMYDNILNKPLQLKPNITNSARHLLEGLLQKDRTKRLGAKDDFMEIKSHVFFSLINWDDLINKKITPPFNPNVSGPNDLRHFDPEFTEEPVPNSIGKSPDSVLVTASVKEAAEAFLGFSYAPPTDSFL

Compound: O=c1cc(N2CCOCC2)oc2c(-c3ccccc3)cccc12 [LY 294002]
- residual activity PI3K (PI3K): 13%
- residual activity CK2 (CK2): 18%
- residual activity PHK (PHK): 44%
- residual activity GSK3β (GSK3β): 53%
- residual activity SGK (SGK): 72%
